No constants are given. Whether binding was seen depends on the method and setting. In cells and extracts the contact can be indirect. A yes stands for co-enrichment or nearness to the bait. Other partners may have been found.
Target: G-protein alpha-subunit (GNAS), endogenous (human (endogenous in HepG2)) (UniProt P63092)
Assay: affinity purification with mass spectrometry; co-IP with anti-GNAS antibody from HepG2 cells, protein A-agarose beads, SDS-PAGE, silver stain, LC-MS/MS (UPLC-QTOF)

By UniProt entry, the sequences of proteins in these tests, tags left out.
UniProt P63092: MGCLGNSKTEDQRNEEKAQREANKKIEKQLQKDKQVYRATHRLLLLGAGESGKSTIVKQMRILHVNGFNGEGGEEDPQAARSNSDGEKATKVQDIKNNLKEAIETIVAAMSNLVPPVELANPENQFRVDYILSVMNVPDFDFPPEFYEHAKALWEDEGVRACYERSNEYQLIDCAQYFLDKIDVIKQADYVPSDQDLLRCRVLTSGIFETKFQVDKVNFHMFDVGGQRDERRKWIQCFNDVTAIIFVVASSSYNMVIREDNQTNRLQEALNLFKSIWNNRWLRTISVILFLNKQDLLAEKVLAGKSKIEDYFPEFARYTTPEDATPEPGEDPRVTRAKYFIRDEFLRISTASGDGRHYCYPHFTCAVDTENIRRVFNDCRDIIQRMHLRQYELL
UniProt P40763: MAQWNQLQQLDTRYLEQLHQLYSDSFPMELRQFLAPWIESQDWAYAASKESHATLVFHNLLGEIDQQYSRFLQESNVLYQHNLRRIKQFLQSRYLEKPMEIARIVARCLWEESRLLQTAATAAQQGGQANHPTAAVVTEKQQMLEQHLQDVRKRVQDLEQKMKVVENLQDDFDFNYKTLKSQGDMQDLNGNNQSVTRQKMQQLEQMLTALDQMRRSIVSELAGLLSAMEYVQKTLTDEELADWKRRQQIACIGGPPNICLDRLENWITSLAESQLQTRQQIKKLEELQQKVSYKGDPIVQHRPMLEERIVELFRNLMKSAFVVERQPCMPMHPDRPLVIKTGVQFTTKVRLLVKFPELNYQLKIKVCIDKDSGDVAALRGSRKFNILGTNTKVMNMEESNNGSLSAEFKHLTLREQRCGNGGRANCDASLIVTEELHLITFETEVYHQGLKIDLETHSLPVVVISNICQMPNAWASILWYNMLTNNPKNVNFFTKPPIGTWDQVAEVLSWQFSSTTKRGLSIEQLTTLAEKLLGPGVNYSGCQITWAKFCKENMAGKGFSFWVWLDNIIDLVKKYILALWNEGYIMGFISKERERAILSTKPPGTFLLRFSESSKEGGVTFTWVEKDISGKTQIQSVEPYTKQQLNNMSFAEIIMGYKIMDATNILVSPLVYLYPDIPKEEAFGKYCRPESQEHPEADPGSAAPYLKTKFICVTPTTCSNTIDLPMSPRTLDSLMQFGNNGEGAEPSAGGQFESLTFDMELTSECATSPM

## signal transducer and activator of transcription 3 (STAT3), endogenous (from UniProt P40763 1-770)
  binding: binds

Source: article PMC7038622
